{"source": "PubChem BioAssay AID1053208 (Peter MacCallum Cancer Centre, 2014)", "aim": "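Find knock-downs that sensitise mouse osteosarcoma cells to doxorubicin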 (primary screen)", "cell system": "mouse osteosarcoma cells, early-passage culture from an engineered mouse model of fibroblastic bone tumour", "reagents": "siRNA pool against mouse genes, 40 nM", "duration": "about 120 h (48 h before drug, then 72 h with drug)", "conditions": "doxorubicin 100 nM for 72 h, roughly 30-40% inhibitory dose", "detection": "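Luminescent ATP signal taken as viability with or without 100 nM doxorubicin for 72 h; mean of two wells set against non-targeting siRNA and turned into robust z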", "direction": "viability z-score with doxorubicin: higher = more viable cells under doxorubicin; viability z-score without drug: higher = more viable cells with knock-down alone", "rule for the call": "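Called active if knock-down leaves viability unchanged without drug (z within -2 to 2) but lowers it with doxorubicin (z at or under -2)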", "note": "The whole screen tested about 17,000 reagents; shown is a random part of them. Over the whole deposit, 788 (4.7%) are marked active. 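Calls rest on z-score classes alone; an extra cut-off of viability at most 70% of control was not applied to them.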 Further read-outs or replicates are left out here. Reagent sequences are not shown."}
{"gene": "Dync1li2", "combined z-score class": "no change with or without drug", "viability z-score with doxorubicin": -1.8, "viability z-score without drug": -0.84, "activity call": "inactive"}
{"gene": "Neil2", "combined z-score class": "no change with or without drug", "viability z-score with doxorubicin": 0.9, "viability z-score without drug": -0.17, "activity call": "inactive"}
{"gene": "Lsm11", "combined z-score class": "no change with or without drug", "viability z-score with doxorubicin": -1.57, "viability z-score without drug": -0.17, "activity call": "inactive"}
{"gene": "Gbp6", "combined z-score class": "no change with or without drug", "viability z-score with doxorubicin": -0.67, "viability z-score without drug": -0.51, "activity call": "inactive"}
{"gene": "Or5p51", "combined z-score class": "no change with or without drug", "viability z-score with doxorubicin": -1.24, "viability z-score without drug": -1.35, "activity call": "inactive"}
{"gene": "Pinx1", "combined z-score class": "no change with or without drug", "viability z-score with doxorubicin": -0.45, "viability z-score without drug": -1.18, "activity call": "inactive"}
{"gene": "BC048671", "combined z-score class": "no change with or without drug", "viability z-score with doxorubicin": 0.9, "viability z-score without drug": 0.17, "activity call": "inactive"}
{"gene": "Ppip5k2", "combined z-score class": "no change with or without drug", "viability z-score with doxorubicin": -1.91, "viability z-score without drug": -1.18, "activity call": "inactive"}
{"gene": "Mturn", "combined z-score class": "no change with or without drug", "viability z-score with doxorubicin": 1.12, "viability z-score without drug": 1.35, "activity call": "inactive"}
{"gene": "Rnpc3", "combined z-score class": "no change with or without drug", "viability z-score with doxorubicin": 0.79, "viability z-score without drug": 0.51, "activity call": "inactive"}
{"gene": "Relch", "combined z-score class": "no change with or without drug", "viability z-score with doxorubicin": 0.22, "viability z-score without drug": 0.67, "activity call": "inactive"}
{"gene": "C530043K16Rik", "combined z-score class": "no change with or without drug", "viability z-score with doxorubicin": -0.22, "viability z-score without drug": 0.34, "activity call": "inactive"}
{"gene": "Map2k3", "combined z-score class": "no change with or without drug", "viability z-score with doxorubicin": -0.56, "viability z-score without drug": 1.52, "activity call": "inactive"}
{"gene": "Prop1", "combined z-score class": "no change with or without drug", "viability z-score with doxorubicin": -0.11, "viability z-score without drug": -0.34, "activity call": "inactive"}
{"gene": "Rnf181", "combined z-score class": "high cell count without drug only", "viability z-score with doxorubicin": 1.46, "viability z-score without drug": 2.53, "activity call": "inactive"}
{"gene": "Gorasp1", "combined z-score class": "no change with or without drug", "viability z-score with doxorubicin": -0.9, "viability z-score without drug": -1.52, "activity call": "inactive"}
{"gene": "Adrb3", "combined z-score class": "no change with or without drug", "viability z-score with doxorubicin": 0.9, "viability z-score without drug": -0.17, "activity call": "inactive"}
{"gene": "Fbxo43", "combined z-score class": "high cell count without drug only", "viability z-score with doxorubicin": 1.12, "viability z-score without drug": 3.54, "activity call": "inactive"}
{"gene": "Ankle2", "combined z-score class": "low cell count with and without drug", "viability z-score with doxorubicin": -3.04, "viability z-score without drug": -2.19, "activity call": "inactive"}
{"gene": "Rsl1d1", "combined z-score class": "high cell count without drug only", "viability z-score with doxorubicin": 1.57, "viability z-score without drug": 3.2, "activity call": "inactive"}
{"gene": "Hes2", "combined z-score class": "no change with or without drug", "viability z-score with doxorubicin": -0.45, "viability z-score without drug": -0.17, "activity call": "inactive"}
{"gene": "Cyp7b1", "combined z-score class": "no change with or without drug", "viability z-score with doxorubicin": 1.35, "viability z-score without drug": 0.51, "activity call": "inactive"}
{"gene": "Nsmaf", "combined z-score class": "no change with or without drug", "viability z-score with doxorubicin": 0.9, "viability z-score without drug": 0, "activity call": "inactive"}
{"gene": "Hmgcll1", "combined z-score class": "no change with or without drug", "viability z-score with doxorubicin": -0.79, "viability z-score without drug": -0.51, "activity call": "inactive"}
{"gene": "Yars1", "combined z-score class": "no change with or without drug", "viability z-score with doxorubicin": -0.9, "viability z-score without drug": -0.17, "activity call": "inactive"}
{"gene": "Chrm1", "combined z-score class": "no change with or without drug", "viability z-score with doxorubicin": -0.56, "viability z-score without drug": -1.01, "activity call": "inactive"}
{"gene": "Vmn1r172", "combined z-score class": "no change with or without drug", "viability z-score with doxorubicin": -0.67, "viability z-score without drug": -0.51, "activity call": "inactive"}
{"gene": "Vmn1r229", "combined z-score class": "no change with or without drug", "viability z-score with doxorubicin": -0.67, "viability z-score without drug": -0.17, "activity call": "inactive"}

Looked up above:
Adrb3, viability z-score with doxorubicin → 0.9
Under “viability z-score without drug”, Or5p51 shows -1.35
For “viability z-score with doxorubicin”, Rnf181 shows 1.46
